Some of the results follow.
Assays:
Assay in all cases: protein microarray (ProtoArray v5.0), streptavidin-Alexa Fluor 647
Conditions in all cases: 3'-biotin; 20 mM Tris (pH 7.5), 5 mM MgCl2, 100 mM KCl, 0.1% Tween-20, A/T-rich and random oligonucleotide blockers; temperature not stated; high values mean tight binding
[1] = tested on: C14orf172 (human)
[2] = tested on: C15orf38 (human)
[3] = tested on: C15orf41 (human)
[4] = tested on: C16orf13 (human)
[5] = tested on: C16orf30 (human)
[6] = tested on: C16orf74 (human)
[7] = tested on: C17orf56 (human)
[8] = tested on: C19orf12 (human)
[9] = tested on: C1orf119 (human)
[10] = tested on: C1orf162 (human)
[11] = tested on: C1orf38 (human)
[12] = tested on: C1orf91 (human)
[13] = tested on: C20orf114 (human)
[14] = tested on: C20orf142 (human)
[15] = tested on: C20orf160 (human)
[16] = tested on: C20orf3 (human)
[17] = tested on: C20orf70 (human)
[18] = tested on: C21orf51 (human)
[19] = tested on: C21orf7 (human)
[20] = tested on: C21orf84 (human)

In the case of “GGTGACAGGGGTATGGGGAGGGG [G4-2 biotinylated (Ct1)]”, the binding signal [1] was -0.361 z-score, the binding signal [2] was -0.365 z-score and the binding signal [3] was -0.383 z-score. The binding signal [4] was -0.382 z-score, the binding signal [5] was -0.392 z-score and the binding signal [6] was -0.385 z-score. The binding signal [7] was -0.386 z-score, the binding signal [8] was -0.401 z-score and the binding signal [9] was -0.359 z-score. For the same sequence, the binding signal [10] was -0.377 z-score, the binding signal [11] was -0.363 z-score and the binding signal [12] was -0.382 z-score. For the same sequence, the binding signal [13] was -0.384 z-score, the binding signal [14] was -0.383 z-score and the binding signal [15] was -0.383 z-score. The binding signal [16] was -0.384 z-score, the binding signal [17] was -0.365 z-score and the binding signal [18] was -0.386 z-score. The binding signal [19] was -0.385 z-score and the binding signal [20] was -0.382 z-score.
